# According to PubChem BioAssay AID1439 (NMMLSC, 2008):
# By UniProt entry, the sequences of proteins in these tests, tags left out.
# UniProt P09471, whole entry, looked up: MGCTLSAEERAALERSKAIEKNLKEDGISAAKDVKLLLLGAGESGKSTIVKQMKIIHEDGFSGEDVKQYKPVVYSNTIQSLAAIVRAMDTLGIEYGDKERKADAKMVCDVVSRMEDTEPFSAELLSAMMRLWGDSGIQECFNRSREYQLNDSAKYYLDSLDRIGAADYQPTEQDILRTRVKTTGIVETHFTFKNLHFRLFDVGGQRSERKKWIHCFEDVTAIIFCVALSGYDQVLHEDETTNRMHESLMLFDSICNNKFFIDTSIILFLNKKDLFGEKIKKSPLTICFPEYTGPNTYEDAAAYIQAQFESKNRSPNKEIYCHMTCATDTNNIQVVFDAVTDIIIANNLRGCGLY
# Screen size: about 220,000 compounds; about 770 (0.35%) were called active. The inconclusive results got no clear call from the source; some entries with a clear call stand among them for comparison. Rule as the data show it: active = binding response below about 49% or above about 150%; inconclusive = no clear call, values can overlap the other calls; inactive = in between.
# Biological target: Guanine nucleotide-binding protein G(o) subunit alpha (Homo sapiens) (UniProt P09471)
# Test: RGS7-Galphao binding modulators, primary screen, biochemical, multiplexed bead flow cytometry (AID 1439);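 also: fluorescent Galphao held in activated GDP-AlF4 state binding bead-coupled RGS7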
# Conditions: at 10 µM, actives lie on both sides
row,Compound,binding response (% of control)
1,O=C(CN1C(=O)NC2(CCOc3ccccc32)C1=O)Nc1cccc(Cl)c1 (stereo unspecified),inactive: 75.2%
2,OCCC1CN(CC(c2ccccc2)c2ccccc2)CCN1C1CCCC1 (stereo unspecified),inactive: 104%
3,CN(c1ccccc1)S(=O)(=O)c1cccc(Cl)c1Cl,inconclusive: 50.3%
4,Nc1c(C(=O)c2ccccc2)sc2nsc(SCCN3CCOCC3)c12,inconclusive: 36.7%
5,C#CCSc1nnnn1-c1cccc(Cl)c1,inconclusive: 518%
6,CCOC(=O)c1cc(C(C)(C)C)nc(SC)c1C#N,inconclusive: 67.7%
7,CC(=O)OCC1(C)CN(c2ccccc2)N(C(=O)c2ccc(F)cc2)C1=O (stereo unspecified),inconclusive: 110%
8,CCOCCCNC(=O)/C(C#N)=C/c1ccc(Cl)c([N+](=O)[O-])c1,inconclusive: 69.9%
9,O=c1c(C(c2ccc(Cl)cc2)c2c(O)nc3n(c2=O)CCCS3)c(O)nc2n1CCCS2,inconclusive: 38.1%
10,C=CCNC(=O)C12CCC(C)(C(=O)[C@H]1Br)C2(C)C (stereo partly specified),inconclusive: 40%
11,CC(C)CC(=O)NC(C)C(c1cccs1)N1CCOCC1 (stereo unspecified),inconclusive: 107%
12,COc1cc(C(F)(F)F)nc2c(Br)c(C(C)(C)C)nn12,inconclusive: 15.3%
13,COc1ccc(C2/C=C\CN(C(=O)CC(C)C)CC(=O)N2Cc2ccc(F)cc2)cc1 (stereo unspecified),inconclusive: 100%
14,CCOc1ccccc1NC(=O)Cn1c(-c2ccc(Cl)cc2)noc1=O,inconclusive: 92.1%
15,O=C(CN1CCN(c2ccc(C(F)(F)F)cn2)CC1)Nc1ccc2c(c1)OCO2,inconclusive: 31.6%
16,O=C(CSc1nc2ccccc2o1)N/N=C/c1ccc(C(=O)O)cc1,inconclusive: 89.2%
17,CN(C)Cc1nnnn1-c1cccc(-n2nnnc2CN(C)C)c1,inconclusive: 96.2%
18,CC(C(=O)Nc1ccccc1C(=O)O)n1c(C(F)(F)F)nc2ccccc21 (stereo unspecified),inconclusive: 86.2%
19,CN1C(C(=O)NCc2ccco2)CC2Cn3c(nc4cc5ccccc5cc43)C21 (stereo unspecified),inconclusive: 114%
20,Cc1cc(C)c(-n2c(SCc3nc4ccccc4s3)n[nH]c2=O)c(C)c1,inconclusive: 94.8%
21,Cc1c(N2C(=O)CSC2c2ccc(F)cc2)c(=O)n(-c2ccccc2)n1C (stereo unspecified),inconclusive: 78.2%
22,CC(C)(C)NC(=O)C(c1ccncc1)N(Cc1ccc(F)cc1)C(=O)c1ccc(-c2ccccc2)[nH]1 (stereo unspecified),inactive: 97.2%
23,CCCOc1nc2c(c(=O)n(C)c(=O)n2C)n1C,inconclusive: 128%

# Look-ups from the list.
# Entry for `OCCC1CN(CC(c2ccccc2)c2ccccc2)CCN1C1CCCC1` (stereo unspecified) under binding response (% of control): inactive: 104%
# Entry for `C#CCSc1nnnn1-c1cccc(Cl)c1` under binding response (% of control): inconclusive: 518%

# Later entries

row,Compound,binding response (% of control)
1,CCSc1n[nH]c2nc3c(c(=O)n12)C1(CCCCC1)Cc1ccccc1-3,inconclusive: 95.7%
2,CC(C)N1C(=O)c2ccccc2N(Cc2ccccc2)S1(=O)=O,inconclusive: 117%
3,Cc1ccc(OCCOc2cccc3ccc(C)nc23)c([N+](=O)[O-])c1,inconclusive: 82.5%
4,CC(C)NS(=O)(=O)c1ccc(OCC(=O)Nc2ccc3c(c2)OCO3)cc1,active: 31.3%
5,COc1ccccc1/C=C(/NC(=O)c1ccc(Cl)cc1Cl)C(=O)O,inactive: 101%
6,CC1(C)CC2(C)OCCN2C(=S)N1 (stereo unspecified),inconclusive: 834%
7,CC1(C)Cc2c(sc3nc(C4CCCCC4)n(N)c(=O)c23)CO1,inconclusive: 44.6%
8,N#CC(C#N)=C1C=C2C=C(N3CCCCC3)CCC2CC1 (stereo unspecified),active: 186% [activator]
9,C/C=C\C=C/C(=O)Nc1cccc(C2=NOC3(C2)C[C@H](C(N)=O)N(C(=O)Cc2ccc([N+](=O)[O-])cc2)C3)c1 (stereo partly specified),inconclusive: 68.3%
10,COc1ccc(C(=O)NCC(=O)OCC(=O)Nc2ccc(C)c(S(=O)(=O)N(C)C)c2)cc1OC,inconclusive: 111%
11,COc1cc(CCC(=O)OCC(N)=O)cc(OC)c1OC,inconclusive: 90.4%
12,OCc1ncccc1O,inconclusive: 70.3%
13,Cc1cccc2sc(NC(=O)c3ccc(OCC4CCCO4)cc3)nc12 (stereo unspecified),inconclusive: 101%
14,Cc1cc(-c2nc(C)c(-c3nnc(SCC(=O)Nc4ccccc4)n3C)s2)no1,inconclusive: 111%
15,Cc1ccc(C(=O)NNc2ncnc3c2cnn3C)cc1,inconclusive: 155%
16,CCN1C(=O)N[C@@H](c2cccs2)C(C(C)=O)=C1C,inconclusive: 65%
17,CCCN1CCN(c2ccc([N+](=O)[O-])cc2C#N)CC1,inconclusive: 87.5%
18,CCn1c(SCC(=O)Nc2cccc(C)c2)nc2nc3c(cc2c1=O)COC(C)(C)C3,inconclusive: 111%
19,CCCCn1cnc2c(c1=O)c1nc3ccccc3nc1n2Cc1ccc2c(c1)OCO2,inconclusive: 131%
20,C=CCn1c2ccccc2c2nnc(SCC(=O)NC(C(=O)OC)C(C)C)nc21 (stereo unspecified),inactive: 139%
21,CCN(CC)S(=O)(=O)c1cc(C)ccc1NC(=S)Nc1cccnc1,inactive: 102%
22,NS(=O)(=O)c1ccc(N/N=C/c2ccc[nH]2)c([N+](=O)[O-])c1,inconclusive: 72.1%
23,S=C(Cc1ccc(Cl)cc1)N1CCOCC1,inconclusive: 111%
